Data on 1 molecule can be found in paper PMC7042354, “Distinct surfaces on Cdc5/PLK Polo-box domain orchestrate combinatorial substrate recognition during cell division” (Scientific Reports, 2020).

No constants are given. Whether binding was seen depends on the method and setting. Sequences can lack the tags named with a protein.

The target of this assay is T1, Cdc5-A567W variant of the polo-box domain (Saccharomyces cerevisiae) (UniProt P32562).
T1 sequence: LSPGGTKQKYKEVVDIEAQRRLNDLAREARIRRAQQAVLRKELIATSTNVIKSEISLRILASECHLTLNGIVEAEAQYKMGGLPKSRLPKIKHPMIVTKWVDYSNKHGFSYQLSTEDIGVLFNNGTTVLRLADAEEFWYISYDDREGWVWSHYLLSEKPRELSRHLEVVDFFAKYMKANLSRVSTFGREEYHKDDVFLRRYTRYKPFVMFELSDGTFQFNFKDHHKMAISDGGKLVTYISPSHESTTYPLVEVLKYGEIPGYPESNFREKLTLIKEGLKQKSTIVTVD
Briefly: condition: 45 µM protein in the chamber cell and 1.2 mM peptide in the injection syringe; ITC; MicroCal iTC200; 45 µM Cdc5-A567W in the chamber cell, 1.2 mM Dbf4 peptide in the syringe; storage buffer with 20 mM EDTA pH 8.0; both purified.

B1: Dbf4-derived peptide (73-96) (peptide)
peptide: EKKRARIERARSIEGAVQVSKGTG
notes: Dbf4, regulatory subunit of the Dbf4-dependent kinase of budding yeast, residues 73-96; Peptide used for ITC and NMR; also called Dbf4 peptide; source: synthetic peptide, bought: GenScript
Regarding B1, the binding result is recorded as “no binding”.
